Molecules are shown by their SMILES. The list shows a part of the results.

The assay can be described thus: stimulators of nuclear beta-catenin in C2C12, primary screen, imaging, WNT3A-conditioned medium, mouse C2C12, NPC library (AID 1117326). Note: reference of the scale not given here. As to conditions: at 2 µM, stronger effect = higher value.

With `CCOC(=O)N1CCC(=O)CC1`, the nuclear beta-catenin stimulation is -1.4%. As for `CCC(=O)N(c1ccccc1)C1CCNCC1`, the figure is 2.3%.
